Results on one substance are retold here after article PMC8590370.

Amino acid sequences for entries named in this document (tags omitted).
UniProt P51858: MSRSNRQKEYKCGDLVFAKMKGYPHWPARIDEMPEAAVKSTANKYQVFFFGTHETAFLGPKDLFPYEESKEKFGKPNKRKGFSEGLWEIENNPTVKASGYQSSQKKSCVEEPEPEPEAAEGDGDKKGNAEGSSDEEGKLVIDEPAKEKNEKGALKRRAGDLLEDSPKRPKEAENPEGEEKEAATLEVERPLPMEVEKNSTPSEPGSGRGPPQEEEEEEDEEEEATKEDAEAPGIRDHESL
UniProt P05412: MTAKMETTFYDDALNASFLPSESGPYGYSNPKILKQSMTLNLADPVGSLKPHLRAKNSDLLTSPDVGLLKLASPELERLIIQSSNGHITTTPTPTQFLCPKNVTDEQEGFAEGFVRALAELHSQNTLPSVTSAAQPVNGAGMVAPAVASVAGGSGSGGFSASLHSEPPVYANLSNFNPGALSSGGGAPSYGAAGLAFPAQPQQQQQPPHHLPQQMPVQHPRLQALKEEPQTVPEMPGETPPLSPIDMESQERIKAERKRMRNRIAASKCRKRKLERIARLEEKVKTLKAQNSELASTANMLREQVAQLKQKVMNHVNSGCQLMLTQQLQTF

This assay deals with hepatoma-derived growth factor (HDGF) (human (endogenous in breast cancer cells MCF-7, MDA-MB-231)) (UniProt P51858). The assay can be described thus: co-IP; endogenous proteins of breast cancer cells; Pierce Co-IP Kit; 3000 µg of protein incubated with anti-NAP1L1, anti-HDGF, anti-c-Jun or anti-IgG antibodies for 12 h at 4 °C; Western blot; anti-IgG as negative control. (In general: In western blotting, separated proteins are transferred to a membrane and probed.)

These are yes or no findings as the source states them, for the method shown. Binding seen in cells or lysates may run through a third protein. Some results given as binding are weak or reduced against the parent protein; the word gives no strength.

On to c-Jun (from UniProt P05412 1-331), for which the binding entry is given as “binds”.
